Measurements reported in PubChem BioAssay AID2685 (National Center for Advancing Translational Sciences (NCATS), 2010).
The campaign covered roughly 320,000 compounds. About 2,100 (0.66%) were called active. The shares of active, inactive and inconclusive entries below differ from those in the screen. Calls follow the shape of the dose curve; as a rule, active = well fitted inhibition curve with a large enough effect in the signal ratio, with a control signal flat (not every such curve was filed as active); inconclusive = small, poorly fitted or top-dose-only effect, or effect the other way, or a change in a side signal; inactive = flat fitted curve, though single readings scatter; the % refers to the signal ratio. Potencies of inconclusive entries are doubtful fits and often do not repeat.
% is scaled to controls: 0 for no effect and ±100 for the full control effect; potency is read from the fitted curve at half-maximal effect.

Test: qHTS Assay for Lipid Storage Modulators in Drosophila S3 Cells
Settings: BODIPY lipid droplet fluorescence, 18-24 h, cells fed with added oleic acid; lipid storage change, negative = inhibition: at 46.1 µM (top of the series) unless noted
Summary of the method: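 Drosophila S3 cells loaded with oleic acid (400 uM, as added) and compounds at several concentrations; lipid droplets imaged by 488-nm laser-scanning cytometry, 500–530 nm intensity and object ratio to cell channel. Percent activity normalized to 20 uM Triacsin C.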
With `COc1cc(C)cc2oc(=O)c(CC(=O)N3C[C@H]4C[C@@H](C3)c3cccc(=O)n3C4)c(C)c12` the lipid storage change, negative = inhibition was inconclusive: 41.7%.
In the case of `O=[N+]([O-])/C=C1\NCCN1Cc1ccc(Cl)nc1`, the lipid storage change, negative = inhibition was inconclusive: 1.71%.
In the case of `CN1c2ccc([N+](=O)[O-])cc2CC2(C(=O)NC(=O)NC2=O)C1c1ccccc1` (stereo not given), the lipid storage change, negative = inhibition was inconclusive: -19.6%.
With `O=C1NC2NC(=O)N([N+](=O)[O-])C2N1` (stereo not given) the lipid storage change, negative = inhibition was inconclusive: -0.285%.
With `CC(=NCCC1=CCCCC1)c1c(O)n(C)c(=O)n(C)c1=O` the lipid storage change, negative = inhibition was inconclusive: 19.1%.
For `O=[N+]([O-])c1ccc(N2CCNCC2)cc1N1CCCCCC1`, the lipid storage change, negative = inhibition was inconclusive: 9.71%.
For `CC[N+]1(C)CCCC(OC(=O)C(O)(c2ccccc2)c2ccccc2)C1` (stereo not given), the lipid storage change, negative = inhibition was inconclusive: -18.1%.
For `COCCn1c(O)c(/C=N/NC(=O)CSC(=S)N2CCCC2)c(=O)[nH]c1=S`, the Potency was inconclusive: 3.26 µM [activator, partial curve].
For `[N-]=[N+]=NCc1cn2cccnc2n1`, the “lipid storage change, negative = inhibition” value was inactive: -11.6%.
For `C#CCN1CCN(c2ccc(F)cc2)CC1`, the Potency was inconclusive: 23.1 µM [falling, partial curve].
In the case of `CN1CCN(c2cn[nH]c(=O)c2Cl)CC1`, the lipid storage change, negative = inhibition was inconclusive: 33.2%.
In the case of `COc1ccccc1-n1c(-c2ccccc2)nc2ccccc2c1=O`, the lipid storage change, negative = inhibition was inconclusive: 16.9%.
For `Cc1cc(C)n(CCOC(=O)C2C(C=C(Cl)Cl)C2(C)C)n1` (stereo not given), the Potency was inconclusive: 2.06 µM [activator, partial curve, poor fit].
With `Cc1ccc(C)c(CN2CCC(n3nnc4cc(F)ccc43)CC2)c1` the Potency was inconclusive: 2.06 µM [falling, full curve].
With `CCOS(C)(=O)=O` the Potency was inconclusive: 20.6 µM [activator, single point].
For `COc1ccc(N=Cc2c(O)n(Cc3ccccc3)c(=S)[nH]c2=O)c(OC)c1`, the lipid storage change, negative = inhibition was inconclusive: -1.37%.
In the case of `COc1cc(-c2ccc(N)c(OC)c2)ccc1N`, the lipid storage change, negative = inhibition was inconclusive: 14.8%.
With `CCCCn1c(N)c(C(=O)OCC2CCCO2)c2nc3ccccc3nc21` (stereo not given) the Potency was inconclusive: 6.51 µM [activator, partial curve, poor fit].
With `COc1ccccc1C(=O)C1CCCN(Cc2cnc(C)s2)C1` (stereo not given) the “lipid storage change, negative = inhibition” value was inactive: 2.31%.
With `C1CCCN(C2CCNCC2)CC1` the Potency was inconclusive: 18.4 µM [activator, partial curve].
In the case of `COc1ccc(-n2c(O)c(/C(C)=N/N3CCCCCC3)c(=O)[nH]c2=O)cc1`, the lipid storage change, negative = inhibition was inconclusive: -1.16%.
With `CCc1c(C)nc(N)nc1N1N=C1SCC(=O)OC` the Potency was inconclusive: 6.51 µM [falling, single point].
For `COc1ccc(C2SCC(=O)Nc3c2c(=O)[nH]n3C2CCCCC2)cc1` (stereo not given), the Potency was inconclusive: 2.91 µM [falling, partial curve].
With `CN1C2CCC1CC(OC(=O)c1ccc([N+](=O)[O-])cc1)C2` (stereo not given) the Potency was inconclusive: 0.0052 µM [falling, full curve, poor fit].
With `CN1CCN(C(=O)Cc2nc3ccccc3[nH]2)CC1` the lipid storage change, negative = inhibition was inconclusive: -3.62%.
For `CCN1CCN(C(=O)Cc2c(C)n(C(=O)c3ccc(Cl)cc3)c3ccc(OC)cc23)CC1`, the lipid storage change, negative = inhibition was inconclusive: 56.6%.
For `CC(=O)N1CCC2(CC1)CC(=O)c1cc(OCC(=O)N3CCN(C)CC3)ccc1O2`, the lipid storage change, negative = inhibition was inconclusive: 148%.
With `COC(=O)C1=C(c2c(C)noc2C)C[C@@H]2CC[C@H]1N2C(=O)NCc1ccco1` the Potency was inconclusive: 0.116 µM [falling, full curve, poor fit].
With `CCCC(=O)N(C)C1=Nc2ccc(Cl)cc2C(c2ccccc2)=[N+]([O-])C1` the lipid storage change, negative = inhibition was inconclusive: 14.9%.
In the case of `Cc1[nH]c2ccc(OC(F)(F)F)cc2c1CCNCc1cccc([N+](=O)[O-])c1`, the Potency was inconclusive: 29.1 µM [falling, single point].
With `CCOC(=O)c1c(C)n(CCN2CCN(C)CC2)c2ccc(OC)cc12` the Potency was inconclusive: 6.51 µM [activator, partial curve].
In the case of `N#CCCn1cc(C(=O)Nc2ccccc2Br)c(-c2ccc([N+](=O)[O-])cc2)n1`, the lipid storage change, negative = inhibition was inconclusive: 36.3%.
In the case of `COc1ccc(Cl)cc1NC1=NCC(C)S1` (stereo not given), the lipid storage change, negative = inhibition was inconclusive: 22.5%.
With `O=C(O)c1ccc(-[n+]2c(-c3ccccc3)cc(-c3ccccc3)cc2-c2ccccc2)cc1` the lipid storage change, negative = inhibition was inconclusive: -4.66%.
With `Cc1c(C(=O)N2CCC3(CC2)OCCO3)sc2ncnc(N(C)c3ccccc3)c12` the lipid storage change, negative = inhibition was inconclusive: 24.5%.
In the case of `Cc1ccc(C(C)C)c(OCC(=O)N2CCN(Cc3nc4cc([N+](=O)[O-])ccc4n3C)CC2)c1`, the lipid storage change, negative = inhibition was inconclusive: 5.42%.
For `FC(F)(F)c1ccc2c(c1)NP(=S)(N1CCOCC1)c1nccn1-2` (stereo not given), the Potency was inconclusive: 0.731 µM [activator, full curve].
With `CC(=NCc1ccc(F)cc1)c1c(O)n(C)c(=O)n(C)c1=O` the Potency was inconclusive: 14.6 µM [activator, single point].
For `CN1CCc2nc(SCc3ccccc3Br)c(C#N)cc2C1`, the lipid storage change, negative = inhibition was inconclusive: -2.07% [at 9.22 µM].
With `COc1cccc(-n2c(O)c(C=NCc3ccc4c(c3)OCO4)c(=O)[nH]c2=O)c1` the Potency was inconclusive: 0.651 µM [falling, full curve].
For `Cc1ccc(C)c(NP(=O)(Oc2ccccc2)Oc2ccccc2)c1`, the lipid storage change, negative = inhibition was inconclusive: -4.29%.
For `COc1ccc(C2=NCC(=O)N(CC(=O)NCc3ccco3)c3sc4c(c32)CCCC4)cc1`, the lipid storage change, negative = inhibition was inconclusive: -10.8%.
With `O=[N+]([O-])c1cc(F)c(N2CCCC2)cc1Br` the lipid storage change, negative = inhibition was inconclusive: -37.5%.
For `C#C[C@]1(OC(C)=O)CCC2C3CCC4=CC(=O)CC[C@@H]4C3CC[C@@]21C` (stereo not given in full), the Potency was inconclusive: 16.4 µM [falling, partial curve, poor fit].
For `O=C(c1cc(C(=O)NCc2ccc(Cl)cc2)c(=O)n(Cc2ccc(Cl)cc2)c1)c1cc(F)ccc1O`, the lipid storage change, negative = inhibition was inconclusive: 19.1%.
With `CCOC(=O)C1CCCCC12C(C#N)=C(N)Oc1n[nH]c(C)c12` (stereo not given) the lipid storage change, negative = inhibition was inconclusive: -45.5%.
With `CCCCNC(=O)CN1C(=O)CN=C(c2ccccc2)c2ccccc21` the “lipid storage change, negative = inhibition” value was inactive: -1.07%.
In the case of `CN(C)CC1CCCCC1OC(=O)c1ccc(Cl)c(Cl)c1` (stereo not given), the lipid storage change, negative = inhibition was inconclusive: 19.3%.
In the case of `CCC(C)N1CCN(C(=O)Cc2ccccc2)CC1` (stereo not given), the Potency was inconclusive: 0.184 µM [falling, full curve, poor fit].
In the case of `COC(=O)C1=C(c2ccc(C(C)=O)cc2)C[C@@H]2CC[C@H]1N2C(=O)NC1CCCCC1`, the lipid storage change, negative = inhibition was inconclusive: 9.79%.
In the case of `Cc1nn(Cc2ccccc2)c(C)c1C(=O)OCC(=O)Nc1ccccc1SCC#N`, the lipid storage change, negative = inhibition was inconclusive: 41.6%.
For `COc1ccc(S(=O)(=O)N2CC3CC(C2)c2cccc(=O)n2C3)cc1` (stereo not given), the lipid storage change, negative = inhibition was inconclusive: 31.1%.
For `Clc1ccc(COC(Cn2ccnc2)c2ccc(Cl)cc2Cl)cc1` (stereo not given), the Potency was inconclusive: 18.4 µM [cytotoxic, single point].
For `NC(=O)CSc1nnc([C@@H](N)Cc2c[nH]c3ccccc23)o1`, the “lipid storage change, negative = inhibition” value was inactive: -10.3%.
In the case of `CN(C)c1ccc(N=Cc2c(O)n(CCC3=CCCCC3)c(=O)[nH]c2=O)cc1`, the Potency was inconclusive: 18.4 µM [activator, single point].
With `CCC(C)C(NC(=O)CCCNC(=O)CCC(=O)OC1O[C@H]2OC3(C)CC[C@H]4[C@H](C)CCC(C1C)C24OO3)C(=O)O` (stereo not given in full) the lipid storage change, negative = inhibition was inconclusive: 35.5%.
With `CCOC(=O)c1ccc(N=C(c2ccccc2)c2c(O)n(C)c(=O)n(C)c2=O)cc1` the “lipid storage change, negative = inhibition” value was inactive: -0.0351%.
For `CCCCCCCCCOc1ccc2[nH]cc(CCN)c2c1`, the lipid storage change, negative = inhibition was inconclusive: -95.8%.
For `FC(F)(F)c1ccc2c(c1)nnn2C1CCN(Cc2nnnn2Cc2ccccc2)CC1`, the Potency was inconclusive: 8.2 µM [activator, single point].
In the case of `O=c1[nH]c(=O)n(CC2CCCO2)c(O)c1/C=C1\C=Nc2ccccc21` (stereo not given), the lipid storage change, negative = inhibition was inconclusive: 3.43%.
For `Cc1cc(C)cc(OCCOc2cccc(C=C3C(=O)NC(=O)NC3=O)c2)c1`, the Potency was inconclusive: 6.51 µM [falling, partial curve, poor fit].
In the case of `Cc1cc(OC(=O)CCCNC(=O)OC(C)(C)C)c2c3c(c(=O)oc2c1)CCC3`, the lipid storage change, negative = inhibition was inconclusive: -43.2%.
With `Cc1ccccc1Cc1c(C)nc2nc(SCC(=O)N3CCC4(CC3)OCCO4)nn2c1C` the lipid storage change, negative = inhibition was inconclusive: 34.5%.
In the case of `CCOP(=O)(OCC)C(O)c1ccc(OC)cc1` (stereo not given), the lipid storage change, negative = inhibition was inconclusive: 8.12%.
For `CC(C)c1ccc(N=Cc2c(O)n(C3CC3)c(=S)[nH]c2=O)cc1`, the Potency was inconclusive: 0.13 µM [cytotoxic, full curve, poor fit].
In the case of `O=c1[nH]c(=S)n(C2CC2)c(O)c1C=NCCc1ccccc1`, the “lipid storage change, negative = inhibition” value was inactive: 11.7%.
With `Cc1ccc(CC(=O)N2CCN(Cc3ccccc3)CC2)cc1` the Potency was inconclusive: 0.164 µM [rising, single point].
With `Cc1ccccc1-c1nc2ccccc2c(=O)n1C` the Potency was inconclusive: 2.91 µM [activator, single point].
With `COc1ccc(-n2c(CN3CCOCC3)nc3ccccc3c2=O)c(OC)c1` the “lipid storage change, negative = inhibition” value was inactive: -6.32%.
For `COC(=O)c1ccc(NC(=O)CSc2nc3ccc(N4C(=O)C5C6C=CC(C6)C5C4=O)cc3s2)cc1` (stereo not given), the Potency was inconclusive: 0.0651 µM [falling, full curve, poor fit].
For `CCNc1cc(N2CCNCC2)ccc1[N+](=O)[O-]`, the lipid storage change, negative = inhibition was inconclusive: -8.81%.
For `CC(=O)Nc1ccc(C2CN(C)CC2C(=O)c2ccc(Cl)cc2)cc1` (stereo not given), the lipid storage change, negative = inhibition was inconclusive: -1.68%.
In the case of `CC(C)c1ccc(NC(=O)CCNC(=O)N2C[C@H]3C[C@@H](C2)c2cccc(=O)n2C3)cc1`, the lipid storage change, negative = inhibition was inconclusive: 21.6%.
For `O=C1CCCN1C(=O)c1cncc(Br)c1`, the lipid storage change, negative = inhibition was inconclusive: -0.42%.
With `Cc1cc(OCC(=O)NCC(O)c2ccccc2)c2c3c(c(=O)oc2c1)CCCC3` (stereo not given) the lipid storage change, negative = inhibition was inconclusive: -32%.
